PubChem BioAssay AID1053208 – Peter MacCallum Cancer Centre | 2014
This is an unselected part of about 17,000 deposited reagents. 788 of all reagents (4.7%) were called active. 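Calls rest on z-score classes alone; an extra cut-off of viability at most 70% of control was not applied to them.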 Reagents against one gene are numbered here.

Assay: 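Genes whose silencing cuts survival of bone tumour cells only with doxorubicin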 (primary screen)
Cell system: mouse osteosarcoma cells, early-passage culture from an engineered mouse model of fibroblastic bone tumour
Knock-down reagent: siRNA pool against mouse genes, 40 nM
Time to read-out: about 120 h (48 h before drug, then 72 h with drug)
Conditions: doxorubicin 100 nM for 72 h, roughly 30-40% inhibitory dose
Read-out: 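Viability read as ATP luminescence after 72 h of 100 nM doxorubicin or none, duplicate wells averaged, scaled to non-targeting siRNA, then expressed as robust z-scores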
Reading the numbers: viability z-score with doxorubicin and doxorubicin viability vs non-targeting: higher = more viable cells under doxorubicin; viability z-score without drug: higher = more viable cells with knock-down alone; z-score of drug to no-drug ratio: higher = less drug sensitisation by knock-down
Rule for the call: 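a pool counts as active when its viability z-score with doxorubicin is -2 or below and its z-score without drug lies between -2 and 2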

Target gene,reagent,combined z-score class,viability z-score with doxorubicin,viability z-score without drug,z-score of drug to no-drug ratio,doxorubicin viability vs non-targeting,outcome
Mrpl16 (GeneID 94063),1,no change with or without drug,0.34,0.34,0.22,0.97,inactive
1110038F14Rik (GeneID 117171),1,no change with or without drug,-0.22,-0.51,0.22,0.92,inactive
Zfyve19 (GeneID 72008),1,no change with or without drug,-0.22,0,-0.11,0.92,inactive
Ttc14 (GeneID 67120),1,no change with or without drug,-1.35,-1.52,-0.34,0.82,inactive
Mettl8 (GeneID 228019),1,no change with or without drug,1.8,-0.17,2.14,1.1,inactive
Dnajc4 (GeneID 57431),1,no change with or without drug,0.67,1.85,-0.45,1,inactive
Tent5b (GeneID 100342),1,no change with or without drug,1.12,0.67,0.79,1.04,inactive
Mmp7 (GeneID 17393),1,high cell count without drug only,0.67,2.02,-0.56,1,inactive
Dnaaf6 (GeneID 331537),1,no change with or without drug,0.67,0.84,0.22,1,inactive
Lrrcc1 (GeneID 71710),1,low cell count with doxorubicin only,-4.05,-1.52,-3.48,0.58,active
Ccdc178 (GeneID 70950),1,low cell count with doxorubicin only,-3.37,-1.52,-2.7,0.64,active
Jph2 (GeneID 59091),1,no change with or without drug,-0.45,0.17,-0.45,0.9,inactive
Cast (GeneID 12380),1,no change with or without drug,1.01,0.17,1.01,1.03,inactive
Sprr2e (GeneID 20759),1,no change with or without drug,0.67,0,0.79,1,inactive
Dlg2 (GeneID 23859),1,no change with or without drug,-0.22,-0.34,0.11,0.92,inactive
Prl8a2 (GeneID 13529),1,no change with or without drug,-1.35,-0.84,-0.79,0.82,inactive
Klhl31 (GeneID 244923),1,no change with or without drug,1.57,0.34,1.46,1.08,inactive
Klhl31 (GeneID 244923),2,no change with or without drug,1.12,0.34,1.01,1.04,inactive
Jak2 (GeneID 16452),1,no change with or without drug,0.79,0.84,0.34,1.01,inactive
D830024N08Rik (GeneID 105246804),1,no change with or without drug,0,0.17,0,0.94,inactive
Nup210 (GeneID 54563),1,no change with or without drug,-1.24,-0.17,-1.12,0.83,inactive
Evx1 (GeneID 14028),1,no change with or without drug,0,1.52,-0.9,0.94,inactive
Unkl (GeneID 74154),1,high cell count without drug only,1.35,2.53,-0.22,1.06,inactive
Semp2l2a (GeneID 231201),1,no change with or without drug,-0.11,-0.51,0.34,0.93,inactive
Vamp7 (GeneID 20955),1,no change with or without drug,1.01,1.85,-0.11,1.03,inactive
Luzp1 (GeneID 269593),1,no change with or without drug,-0.45,-0.17,-0.22,0.9,inactive
Bloc1s4 (GeneID 117197),1,no change with or without drug,-0.56,1.52,-1.35,0.89,inactive
Cd248 (GeneID 70445),1,no change with or without drug,-0.9,-0.17,-0.79,0.86,inactive
Xpo5 (GeneID 72322),1,no change with or without drug,0.22,-0.17,0.45,0.96,inactive
Samtor (GeneID 101148),1,no change with or without drug,-0.11,-0.51,0.34,0.93,inactive
Pira1 (GeneID 18722),1,no change with or without drug,1.12,1.35,0.34,1.04,inactive
Vmn1r172 (GeneID 81010),1,no change with or without drug,-0.67,-0.51,-0.22,0.88,inactive
Bcl9 (GeneID 77578),1,no change with or without drug,0,-0.34,0.34,0.94,inactive
Pnp (GeneID 18950),1,no change with or without drug,0.22,1.01,-0.34,0.96,inactive
Cd63 (GeneID 12512),1,no change with or without drug,-1.12,-0.17,-1.01,0.84,inactive
Pdx1 (GeneID 18609),1,no change with or without drug,0.11,0,0.22,0.95,inactive
Stard5 (GeneID 170460),1,no change with or without drug,1.35,1.52,0.45,1.06,inactive
Kif1a (GeneID 16560),1,no change with or without drug,0.67,1.52,-0.22,1,inactive
Spint1 (GeneID 20732),1,no change with or without drug,1.12,0.84,0.67,1.04,inactive
Mill2 (GeneID 243864),1,no change with or without drug,0.67,-1.35,1.91,1,inactive
BC061237 (GeneID 385138),1,no change with or without drug,-0.56,-0.17,-0.34,0.89,inactive
Nfkbie (GeneID 18037),1,no change with or without drug,1.35,0.34,1.24,1.06,inactive
G6pc1 (GeneID 14377),1,low cell count with doxorubicin only,-2.14,0.34,-2.36,0.75,active
Nectin4 (GeneID 71740),1,no change with or without drug,-1.57,0,-1.57,0.8,inactive
Ddx11 (GeneID 320209),1,no change with or without drug,0.9,-0.51,1.46,1.02,inactive
Zfp219 (GeneID 69890),1,low cell count without drug only,-1.35,-2.53,0.45,0.82,inactive
Rtl1 (GeneID 353326),1,no change with or without drug,1.91,1.85,0.79,1.11,inactive
Exoc8 (GeneID 102058),1,no change with or without drug,-0.22,0.34,-0.34,0.92,inactive
Mterf3 (GeneID 66410),1,high cell count with doxorubicin only,2.02,-1.18,3.26,1.12,inactive
Tmco1 (GeneID 68944),1,no change with or without drug,-0.34,1.52,-1.12,0.91,inactive

7 consecutive entries from above:
Target gene,reagent,combined z-score class,viability z-score with doxorubicin,viability z-score without drug,z-score of drug to no-drug ratio,doxorubicin viability vs non-targeting,outcome
Klhl31 (GeneID 244923),2,no change with or without drug,1.12,0.34,1.01,1.04,inactive
Jak2 (GeneID 16452),1,no change with or without drug,0.79,0.84,0.34,1.01,inactive
D830024N08Rik (GeneID 105246804),1,no change with or without drug,0,0.17,0,0.94,inactive
Nup210 (GeneID 54563),1,no change with or without drug,-1.24,-0.17,-1.12,0.83,inactive
Evx1 (GeneID 14028),1,no change with or without drug,0,1.52,-0.9,0.94,inactive
Unkl (GeneID 74154),1,high cell count without drug only,1.35,2.53,-0.22,1.06,inactive
Semp2l2a (GeneID 231201),1,no change with or without drug,-0.11,-0.51,0.34,0.93,inactive
